Data: article doi:10.1101/830802
Results are given in words; binding and its absence hold for the method and conditions named. Binding seen in cells or lysates may run through a third protein. These calls come from enrichment with a bait or labelling near it, and not all partners need be listed. Where a sequence is shown, tags or fusion partners need not be part of it.

By UniProt entry, the sequences of proteins in these tests, tags left out.
UniProt Q9UJY4: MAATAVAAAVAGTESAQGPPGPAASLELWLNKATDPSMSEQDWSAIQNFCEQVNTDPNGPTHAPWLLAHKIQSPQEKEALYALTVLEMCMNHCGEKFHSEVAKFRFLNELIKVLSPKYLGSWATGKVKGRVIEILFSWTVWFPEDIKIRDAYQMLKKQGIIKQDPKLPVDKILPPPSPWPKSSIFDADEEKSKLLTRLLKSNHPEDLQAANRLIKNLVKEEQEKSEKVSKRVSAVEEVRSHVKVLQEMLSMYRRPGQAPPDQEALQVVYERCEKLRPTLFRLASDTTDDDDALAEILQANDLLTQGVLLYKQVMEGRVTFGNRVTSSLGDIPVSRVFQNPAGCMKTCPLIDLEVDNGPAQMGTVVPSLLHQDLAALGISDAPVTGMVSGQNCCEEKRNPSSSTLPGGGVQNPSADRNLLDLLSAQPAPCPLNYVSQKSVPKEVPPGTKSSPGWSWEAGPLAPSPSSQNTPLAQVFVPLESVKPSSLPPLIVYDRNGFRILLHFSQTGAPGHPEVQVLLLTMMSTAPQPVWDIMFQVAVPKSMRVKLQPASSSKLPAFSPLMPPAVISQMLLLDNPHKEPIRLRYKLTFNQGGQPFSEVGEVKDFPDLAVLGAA
UniProt P11142: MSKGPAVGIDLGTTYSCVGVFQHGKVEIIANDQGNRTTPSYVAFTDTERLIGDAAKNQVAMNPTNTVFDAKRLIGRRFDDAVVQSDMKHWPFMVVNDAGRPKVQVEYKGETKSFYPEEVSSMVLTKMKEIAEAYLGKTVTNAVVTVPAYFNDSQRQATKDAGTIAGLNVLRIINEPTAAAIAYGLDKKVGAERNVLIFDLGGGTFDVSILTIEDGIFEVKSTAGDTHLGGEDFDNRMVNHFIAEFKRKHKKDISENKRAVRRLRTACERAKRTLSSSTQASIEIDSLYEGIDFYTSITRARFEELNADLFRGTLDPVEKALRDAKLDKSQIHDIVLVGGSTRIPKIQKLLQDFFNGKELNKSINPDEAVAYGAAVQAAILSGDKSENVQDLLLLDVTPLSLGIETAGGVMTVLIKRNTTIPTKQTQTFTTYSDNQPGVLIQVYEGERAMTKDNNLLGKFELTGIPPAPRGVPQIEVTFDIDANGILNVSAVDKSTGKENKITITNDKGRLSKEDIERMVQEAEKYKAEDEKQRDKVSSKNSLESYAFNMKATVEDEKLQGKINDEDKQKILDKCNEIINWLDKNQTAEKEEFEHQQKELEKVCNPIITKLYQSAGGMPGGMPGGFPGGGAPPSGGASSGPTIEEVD

Target: T1, GFP-Auxilin (wild type, human) (human) (UniProt O75061)
T1 sequence: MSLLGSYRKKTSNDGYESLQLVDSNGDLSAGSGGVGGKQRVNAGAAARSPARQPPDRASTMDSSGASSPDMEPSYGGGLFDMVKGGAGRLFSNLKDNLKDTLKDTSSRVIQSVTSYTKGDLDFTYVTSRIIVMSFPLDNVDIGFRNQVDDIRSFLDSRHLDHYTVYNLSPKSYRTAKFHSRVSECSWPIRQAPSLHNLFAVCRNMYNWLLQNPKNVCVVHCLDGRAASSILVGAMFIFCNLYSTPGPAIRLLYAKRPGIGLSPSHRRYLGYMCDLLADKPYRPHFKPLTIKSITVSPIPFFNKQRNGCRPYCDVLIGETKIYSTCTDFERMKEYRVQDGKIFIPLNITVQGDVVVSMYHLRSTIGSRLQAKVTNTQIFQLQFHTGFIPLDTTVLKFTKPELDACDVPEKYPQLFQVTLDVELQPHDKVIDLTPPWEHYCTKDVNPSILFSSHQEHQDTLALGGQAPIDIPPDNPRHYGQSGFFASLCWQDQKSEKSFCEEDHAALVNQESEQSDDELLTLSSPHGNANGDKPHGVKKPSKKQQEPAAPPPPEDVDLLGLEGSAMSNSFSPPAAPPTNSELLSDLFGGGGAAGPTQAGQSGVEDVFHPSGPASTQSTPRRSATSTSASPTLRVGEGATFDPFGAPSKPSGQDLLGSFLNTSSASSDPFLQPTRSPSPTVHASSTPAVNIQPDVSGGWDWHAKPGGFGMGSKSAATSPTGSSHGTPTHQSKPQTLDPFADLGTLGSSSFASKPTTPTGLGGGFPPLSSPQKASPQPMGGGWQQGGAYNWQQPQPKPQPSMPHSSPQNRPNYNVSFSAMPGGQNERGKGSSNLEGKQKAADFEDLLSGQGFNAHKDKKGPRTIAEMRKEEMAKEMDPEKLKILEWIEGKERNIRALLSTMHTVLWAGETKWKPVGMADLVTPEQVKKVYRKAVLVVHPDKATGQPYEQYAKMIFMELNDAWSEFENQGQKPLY
Test: affinity purification with mass spectrometry

Row | binding | Substance
1 | binds | GGA2, endogenous in HEK293FT (from UniProt Q9UJY4 1-613)
2 | binds | HSC70, endogenous in HEK293FT (from UniProt P11142 1-646)
